{"source": "PubChem BioAssay AID504784 (Drosophila RNAi Screening Center, 2011)", "assay": "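Search for regulators of lipid droplet storage in oleate-fed fly cells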 (primary screen)", "cell system": "Drosophila Kc167 embryonic cells", "reagents": "long dsRNA against Drosophila genes, about 250 ng dsRNA per well", "timing": "4 days", "treatment": "cells fed 400 µM oleic acid bound to BSA", "measured": "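Microscope images give a droplet-to-nucleus area ratio, taken as log and converted to a screen-wide B-score; higher values mean greater lipid storage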", "scale": "droplet/nuclear area B-score: higher = more stored lipid (overstorage)", "note": "The deposit covers about 17,000 reagents; below is an unselected part of those with a known target gene and a result. 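Each column is one replicate's B-score; the combined score over replicates was not deposited, so single values may mislead.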 A plus sign joins genes that one reagent is predicted to hit. Further read-outs or replicates are left out here. No sequences are given here."}
{"gene knocked down":"Hmgcr (GeneID 42803)","DRSC id":"DRSC16704","droplet/nuclear area B-score, replicate 1":1.23}
{"gene knocked down":"dib (GeneID 45282)","DRSC id":"DRSC08711","droplet/nuclear area B-score, replicate 1":-0.646}
{"gene knocked down":"pncr003:2L (retired record) (GeneID 3772689)","DRSC id":"DRSC22149","droplet/nuclear area B-score, replicate 1":4.09}
{"gene knocked down":"kn (GeneID 45318)","DRSC id":"DRSC05505","droplet/nuclear area B-score, replicate 1":0.52}
{"gene knocked down":"kn (GeneID 45318)","DRSC id":"DRSC06196","droplet/nuclear area B-score, replicate 1":-0.0282}
{"gene knocked down":"kn (GeneID 45318)","DRSC id":"DRSC07637","droplet/nuclear area B-score, replicate 1":-1.86}
{"gene knocked down":"kn (GeneID 45318)","DRSC id":"DRSC21533","droplet/nuclear area B-score, replicate 1":0.387}
{"gene knocked down":"CG14645 (GeneID 50160)","DRSC id":"DRSC12231","droplet/nuclear area B-score, replicate 1":1.04}
{"gene knocked down":"CG34445 (GeneID 5740761)","DRSC id":"DRSC22404","droplet/nuclear area B-score, replicate 1":-0.675}
{"gene knocked down":"spn-F (GeneID 43700)","DRSC id":"DRSC14475","droplet/nuclear area B-score, replicate 1":0.877}
{"gene knocked down":"Dgkepsilon (GeneID 36408)","DRSC id":"DRSC07399","droplet/nuclear area B-score, replicate 1":1.01}
{"gene knocked down":"X11Lbeta (GeneID 31997)","DRSC id":"DRSC18156","droplet/nuclear area B-score, replicate 1":1.08}
{"gene knocked down":"X11Lbeta (GeneID 31997)","DRSC id":"DRSC18158","droplet/nuclear area B-score, replicate 1":-0.328}
{"gene knocked down":"CG42360 (GeneID 37937)","DRSC id":"DRSC04224","droplet/nuclear area B-score, replicate 1":-0.878}
{"gene knocked down":"CG31010 (GeneID 318555)","DRSC id":"DRSC14006","droplet/nuclear area B-score, replicate 1":3.03}
{"gene knocked down":"CG12860 (GeneID 36629)","DRSC id":"DRSC06200","droplet/nuclear area B-score, replicate 1":0.927}
{"gene knocked down":"CG6912 (GeneID 41820)","DRSC id":"DRSC16132","droplet/nuclear area B-score, replicate 1":0.218}
{"gene knocked down":"mRpS17 (GeneID 37872)","DRSC id":"DRSC04463","droplet/nuclear area B-score, replicate 1":1.49}
{"gene knocked down":"CG14204 (GeneID 32950)","DRSC id":"DRSC19559","droplet/nuclear area B-score, replicate 1":-0.128}
{"gene knocked down":"Sxl + CG14425 (retired record)","DRSC id":"DRSC18721","droplet/nuclear area B-score, replicate 1":-0.283}
{"gene knocked down":"Sxl + CG14425 (retired record)","DRSC id":"DRSC18722","droplet/nuclear area B-score, replicate 1":-0.724}
{"gene knocked down":"Sxl + CG14425 (retired record)","DRSC id":"DRSC21490","droplet/nuclear area B-score, replicate 1":1.44}
{"gene knocked down":"GstD4 (GeneID 48337)","DRSC id":"DRSC16685","droplet/nuclear area B-score, replicate 1":-1.02}
{"gene knocked down":"Dhod (GeneID 41022)","DRSC id":"DRSC16647","droplet/nuclear area B-score, replicate 1":1.75}
{"gene knocked down":"Cirl (GeneID 35846)","DRSC id":"DRSC21942","droplet/nuclear area B-score, replicate 1":4.91}
{"gene knocked down":"Cirl (GeneID 35846)","DRSC id":"DRSC23235","droplet/nuclear area B-score, replicate 1":-1.93}
{"gene knocked down":"Psn (GeneID 40260)","DRSC id":"DRSC11743","droplet/nuclear area B-score, replicate 1":0.0423}
